Assay results reported in patent US20090306135A1, “STABLE AMORPHOUS FEXOFENADINE HYDROCHLORIDE” (priority 2008, published 2009).

Assays:
[1] = during drying at elevated temperature
[2] = up to 2 months and above
From the text: X-Ray tube with Cu target anode Divergence slits 1 0, Receiving slit 0.15 mm, Scatter slit 1 0 Power: 40 KV, 100 mA; Scanning speed: 2 degree/minute step: 0.02 degree; Wave length: 1.5406 A; Spray Dryer: PST01

Structure (SMILES): CC(C)(C(=O)O)c1ccc(C(O)CCCN2CCC(C(O)(c3ccccc3)c3ccccc3)CC2)cc1.Cl (racemic) [amorphous fexofenadine hydrochloride, (±)-4-[1 hydroxy-4-[4-(hydroxydiphenylmethyl)-1-piperidinyl]-butyl]-α,α-dimethyl benzeneacetic acid hydrochloride]
- stability against thermal degradation [1]: stable against thermal degradation
- content of 2-[4-(4-{4-[hydroxyl(diphenyl)methyl]piperidin-1-yl}butanoyl)phenyl]-2-methylpropanoic acid on storage [2]: remains constant
